Data on one molecule can be found in paper PMC13415819.

Chains of the proteins cited; added tags and fusions are not shown.
UniProt O95817: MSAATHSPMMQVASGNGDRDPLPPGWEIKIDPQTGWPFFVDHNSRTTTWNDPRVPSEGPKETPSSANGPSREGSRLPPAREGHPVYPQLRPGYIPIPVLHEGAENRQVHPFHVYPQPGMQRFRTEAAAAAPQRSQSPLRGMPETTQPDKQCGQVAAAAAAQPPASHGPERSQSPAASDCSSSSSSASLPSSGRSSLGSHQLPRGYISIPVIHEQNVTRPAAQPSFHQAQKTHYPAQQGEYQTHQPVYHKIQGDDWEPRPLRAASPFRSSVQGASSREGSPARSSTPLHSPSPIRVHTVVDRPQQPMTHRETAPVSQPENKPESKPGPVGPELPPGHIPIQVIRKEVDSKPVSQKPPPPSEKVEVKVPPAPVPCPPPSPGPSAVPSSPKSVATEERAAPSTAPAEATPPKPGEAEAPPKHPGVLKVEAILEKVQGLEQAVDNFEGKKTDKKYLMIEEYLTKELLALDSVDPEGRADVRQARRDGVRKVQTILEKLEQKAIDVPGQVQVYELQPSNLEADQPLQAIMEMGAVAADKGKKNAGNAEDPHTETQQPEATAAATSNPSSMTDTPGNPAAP

Results are given in words; binding and its absence hold for the method and conditions named. Some entries that bind do so weakly or less than the wild type. Where a sequence is shown, tags or fusion partners need not be part of it.

The assay has as its target BAG3 (HIS-fusion protein) (UniProt O95817). In words: pull-down; 1 µM HIS-BAG3 on Ni-NTA-agarose, 1.5 µM MBP-PDLIM3/MBP preparation; 20 mM MOPS pH 7.2, 100 mM KCl, 40 mM imidazol; 1 h on ice; eluted with 200 mM imidazol; SDS-PAGE and immunoblotting; both purified. Background: Immunoblotting shows a protein as a band on a membrane.

B1: MBP-PDLIM3 (protein, UniProt Q53GG5 1-364)
chain: MPQTVILPGPAPWGFRLSGGIDFNQPLVITRITPGSKAAAANLCPGDVILAIDGFGTESMTHADAQDRIKAAAHQLCLKIDRGETHLWSPQVSEDGKAHPFKINLESEPQDGNYFEHKHNIRPKPFVIPGRSSGCSTPSGIDCGSGRSTPSSVSTVSTICPGDLKVAAKLAPNIPLEMELPGVKIVHAQFNTPMQLYSDDNIMETLQGQVSTALGETPLMSEPTASVPPESDVYRMLHDNRNEPTQPRQSGSFRVLQGMVDDGSDDRPAGTRSVRAPVTKVHGGSGGAQRMPLCDKCGSGIVGAVVKARDKYRHPECFVCADCNLNLKQKGYFFIEGELYCETHARARTKPPEGYDTVTLYPKA
In the case of B1, the binding entry is “binds”.
